Measured values taken from ChEMBL document CHEMBL4316593 (Eur J Med Chem, 2019).
This continues a long series; more values of the same kind are listed elsewhere.

Legend:
Assay type in all cases: cell-based
Conditions in all cases: U-87MG ATCC
[1] = Inhibition of RTK assessed as Inhibition of RTK/PI3K/AKT/mTOR signaling in human U87 cells assessed as down regulation of FOS gene expression at cytotoxic IC50 measured after 48 hrs relative to control
[2] = Inhibition of RTK/PI3K/AKT/mTOR signaling in human U87 cells assessed as down regulation of COL12A1 gene expression at cytotoxic IC50 measured after 48 hrs relative to control
[3] = Inhibition of RTK/PI3K/AKT/mTOR signaling in human U87 cells assessed as down regulation of RAD54L2 gene expression at cytotoxic IC50 measured after 48 hrs relative to control
[4] = Inhibition of RTK/PI3K/AKT/mTOR signaling in human U87 cells assessed as down regulation of CYLD gene expression at cytotoxic IC50 measured after 48 hrs relative to control
[5] = Inhibition of RTK/PI3K/AKT/mTOR signaling in human U87 cells assessed as down regulation of MBIP gene expression at cytotoxic IC50 measured after 48 hrs relative to control
[6] = Inhibition of RTK/PI3K/AKT/mTOR signaling in human U87 cells assessed as down regulation of KIAA0355 gene expression at cytotoxic IC50 measured after 48 hrs relative to control
[7] = Inhibition of RTK/PI3K/AKT/mTOR signaling in human U87 cells assessed as down regulation of HNRNPDL gene expression at cytotoxic IC50 measured after 48 hrs relative to control
[8] = Inhibition of RTK/PI3K/AKT/mTOR signaling in human U87 cells assessed as down regulation of ZUFSP gene expression at cytotoxic IC50 measured after 48 hrs relative to control
[9] = Inhibition of RTK/PI3K/AKT/mTOR signaling in human U87 cells assessed as down regulation of UNC119 gene expression at cytotoxic IC50 measured after 48 hrs relative to control
[10] = Inhibition of RTK/PI3K/AKT/mTOR signaling in human U87 cells assessed as down regulation of SNX7 gene expression at cytotoxic IC50 measured after 48 hrs relative to control
[11] = Inhibition of RTK/PI3K/AKT/mTOR signaling in human U87 cells assessed as down regulation of ARPC5 gene expression at cytotoxic IC50 measured after 48 hrs relative to control
[12] = Inhibition of RTK/PI3K/AKT/mTOR signaling in human U87 cells assessed as down regulation of IFIT5 gene expression at cytotoxic IC50 measured after 48 hrs relative to control
[13] = Inhibition of RTK/PI3K/AKT/mTOR signaling in human U87 cells assessed as down regulation of TJP1 gene expression at cytotoxic IC50 measured after 48 hrs relative to control
[14] = Inhibition of RTK/PI3K/AKT/mTOR signaling in human U87 cells assessed as down regulation of PSMD4 gene expression at cytotoxic IC50 measured after 48 hrs relative to control
[15] = Inhibition of RTK/PI3K/AKT/mTOR signaling in human U87 cells assessed as down regulation of CFAP20 gene expression at cytotoxic IC50 measured after 48 hrs relative to control
[16] = Inhibition of RTK/PI3K/AKT/mTOR signaling in human U87 cells assessed as down regulation of TLN1 gene expression at cytotoxic IC50 measured after 48 hrs relative to control
[17] = Inhibition of RTK/PI3K/AKT/mTOR signaling in human U87 cells assessed as up regulation of SLC16A5 gene expression at cytotoxic IC50 measured after 48 hrs relative to control
[18] = Inhibition of RTK/PI3K/AKT/mTOR signaling in human U87 cells assessed as up regulation of t-complex 11 like 2 gene expression at cytotoxic IC50 measured after 48 hrs relative to control
[19] = Inhibition of RTK/PI3K/AKT/mTOR signaling in human U87 cells assessed as up regulation of glycogen synthase 1 gene expression at cytotoxic IC50 measured after 48 hrs relative to control
[20] = Inhibition of RTK/PI3K/AKT/mTOR signaling in human U87 cells assessed as up regulation of STEAP2 metalloreductase gene expression at cytotoxic IC50 measured after 48 hrs relative to control
[21] = Inhibition of RTK/PI3K/AKT/mTOR signaling in human U87 cells assessed as up regulation of chromosome 20 open reading frame 96 gene expression at cytotoxic IC50 measured after 48 hrs relative to control
[22] = Inhibition of RTK/PI3K/AKT/mTOR signaling in human U87 cells assessed as up regulation of potassium channel tetramerization domain containing 15 gene expression at cytotoxic IC50 measured after 48 hrs relative to control
[23] = Inhibition of RTK/PI3K/AKT/mTOR signaling in human U87 cells assessed as up regulation of proline rich nuclear receptor coactivator 1 gene expression at cytotoxic IC50 measured after 48 hrs relative to control
[24] = Inhibition of RTK/PI3K/AKT/mTOR signaling in human U87 cells assessed as up regulation of ribonuclease/angiogenin inhibitor 1 gene expression at cytotoxic IC50 measured after 48 hrs relative to control
[25] = Inhibition of RTK/PI3K/AKT/mTOR signaling in human U87 cells assessed as up regulation of period circadian clock 2 gene expression at cytotoxic IC50 measured after 48 hrs relative to control
[26] = Inhibition of RTK/PI3K/AKT/mTOR signaling in human U87 cells assessed as up regulation of adenine phosphoribosyltransferase gene expression at cytotoxic IC50 measured after 48 hrs relative to control
[27] = Inhibition of RTK/PI3K/AKT/mTOR signaling in human U87 cells assessed as up regulation of AGPAT2 gene expression at cytotoxic IC50 measured after 48 hrs relative to control
[28] = Inhibition of RTK/PI3K/AKT/mTOR signaling in human U87 cells assessed as up regulation of UBE2G2 gene expression at cytotoxic IC50 measured after 48 hrs relative to control
[29] = Inhibition of RTK/PI3K/AKT/mTOR signaling in human U87 cells assessed as up regulation of RPL7A gene expression at cytotoxic IC50 measured after 48 hrs relative to control
[30] = Inhibition of RTK/PI3K/AKT/mTOR signaling in human U87 cells assessed as up regulation of EPHA2 gene expression at cytotoxic IC50 measured after 48 hrs relative to control
[31] = Inhibition of RTK/PI3K/AKT/mTOR signaling in human U87 cells assessed as up regulation of RPS7 gene expression at cytotoxic IC50 measured after 48 hrs relative to control
[32] = Inhibition of RTK/PI3K/AKT/mTOR signaling in human U87 cells assessed as up regulation of RPL4 gene expression at cytotoxic IC50 measured after 48 hrs relative to control

CC(=O)C(=NNc1ccccc1C#N)C(C)=O
log2FC [1]: -1.93
log2FC [2]: -1.63
log2FC [3]: -1.63
log2FC [4]: -1.26
log2FC [5]: -1.15
log2FC [6]: -0.945
log2FC [7]: -0.907
log2FC [8]: -0.894
log2FC [9]: -0.881
log2FC [10]: -0.839
log2FC [11]: -0.836
log2FC [12]: -0.77
log2FC [13]: -0.717
log2FC [14]: -0.697
log2FC [15]: -0.616
log2FC [16]: -0.367
log2FC [17]: 2.09
log2FC [18]: 1.46
log2FC [19]: 1.04
log2FC [20]: 0.964
log2FC [21]: 0.957
log2FC [22]: 0.912
log2FC [23]: 0.857
log2FC [24]: 0.734
log2FC [25]: 0.677
log2FC [26]: 0.674
log2FC [27]: 0.626
log2FC [28]: 0.594
log2FC [29]: 0.493
log2FC [30]: 0.418
log2FC [31]: 0.357
log2FC [32]: 0.322
